# Laboratory results reported in the supplement of paper PMC7411640.
# Where a name gives a salt, the structure may show the parent alone. Some of the results follow. Repeats in this data set agree poorly, so a single value says little.
# Tested on: MDA-MB-468
# Experiment: phospho-S6 immunofluorescence (DAPI-normalised), per-plate z-score; higher = higher phospho-S6 signal (less pathway suppression)
# Conditions: 24 h
# Protocol: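 GPCR-targeted compound library (MedChemExpress HY-L006) tested on MDA-MB-468 PTEN-null TNBC cells in 384-well plates at 0.1, 1 or 10 uM, combined with vehicle, GDC0941 450 nM or lapatinib 1 uM, for 24 h. Phospho-S6 (S240/244) immunofluorescence normalised to DAPI and expressed as a per-plate z-score; values are the mean of biological triplicates.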
# [1] = compound 0.1 µM, co-treatment: GDC0941 450 nM
# [2] = compound 0.1 µM, co-treatment: lapatinib 1 uM
# [3] = compound 0.1 µM, co-treatment: vehicle
# [4] = compound 1 µM, co-treatment: GDC0941 450 nM
# [5] = compound 1 µM, co-treatment: lapatinib 1 uM
# [6] = compound 1 µM, co-treatment: vehicle
# [7] = compound 10 µM, co-treatment: GDC0941 450 nM
# [8] = compound 10 µM, co-treatment: lapatinib 1 uM
# [9] = compound 10 µM, co-treatment: vehicle
Compound,phospho-S6 immunofluorescence (z-score) [1],phospho-S6 immunofluorescence (z-score) [2],phospho-S6 immunofluorescence (z-score) [3],phospho-S6 immunofluorescence (z-score) [4],phospho-S6 immunofluorescence (z-score) [5],phospho-S6 immunofluorescence (z-score) [6],phospho-S6 immunofluorescence (z-score) [7],phospho-S6 immunofluorescence (z-score) [8],phospho-S6 immunofluorescence (z-score) [9]
CCCCc1ncc(/C=C(\Cc2cccs2)C(=O)O)n1Cc1ccc(C(=O)O)cc1 [Eprosartan (mesylate)],-0.01,-0.01,-0.1,0.77,-0.19,0.99,0.37,0.05,0.01
Cc1c(Cc2ccc3ccccc3n2)c2cc(F)ccc2n1CC(=O)O,0.12,0.99,0.23,0.53,0.7,-0.04,0,0.39,0.58
COc1ccc(-c2oc3c(CC=C(C)C)c(O)cc(O)c3c(=O)c2O[C@@H]2O[C@@H](C)[C@H](O)[C@@H](O)[C@H]2O)cc1 [Baohuoside I],1.28,0.33,1.12,-0.81,0.41,1.76,-5.72,-5.94,-7.08
Cc1ccccc1N1CCN(CCc2nnc3n2CCCC3)CC1 [Dapiprazole (hydrochloride)],-0.73,0.66,-0.23,-0.6,0.73,0.49,0.31,-0.49,-0.32
OCCNC1CCCc2c1[nH]c1ccc(-c3ccccc3)cc21 (stereo not given),-0.4,-0.22,0.65,-0.89,-2.18,0.44,-5.16,-8.66,-9.39
CCOc1nc2cccc(C(=O)O)c2n1Cc1ccc(-c2ccccc2-c2noc(=O)[nH]2)cc1 [Azilsartan],0.56,-0.22,-0.31,0.58,-0.33,-0.06,-0.76,0.26,-0.54
CN1CCN(C2=Nc3ccccc3Oc3ccc(Cl)cc32)CC1 [Loxapine],1.82,-0.11,0.59,0.76,0.8,1.66,0.6,-0.55,0.95
Clc1ccc2nsnc2c1NC1=NCCN1 [Tizanidine (hydrochloride)],1.44,0.93,1.52,1.18,0.93,0.36,1.42,-0.07,0.54
OCc1cc(C(O)CNCCCCCCOCCCCc2ccccc2)ccc1O (stereo not given) [Salmeterol (xinafoate)],1.09,1.5,1.24,1.18,1.81,0.21,1.01,-2.27,2.28
CCOC(=O)N[C@@H]1CC[C@@H]2[C@@H](C1)C[C@H]1C(=O)O[C@H](C)[C@H]1[C@H]2/C=C/c1ccc(-c2cccc(F)c2)cn1 [Vorapaxar],-4,-3.21,-0.74,-6.58,-7.4,-1.81,-5.92,-11.6,-9.84
CCCC1O[C@@H]2C[C@H]3[C@@H]4CCC5=CC(=O)C=C[C@]5(C)[C@H]4[C@@H](O)C[C@]3(C)[C@]2(C(=O)CO)O1 (stereo not given in full) [Budesonide],-0.74,1.17,0.71,-0.56,1.09,1.45,-0.53,-0.12,-0.2
CN(C)CCCN1c2ccccc2Sc2ccccc21 [Promazine (hydrochloride)],0.36,-0.62,0.88,-0.8,-0.93,0.59,-0.07,-1.25,0.4
CN1CCN(CCc2ccc(Cl)c(Cl)c2)CC1 [BD1063 (dhydrochloride)],-0.3,-0.37,-0.36,0.37,-0.95,-1.6,0.51,-1.56,-0.49
COC(=O)[C@@H]1[C@H]2C[C@H]3c4[nH]c5ccccc5c4CCN3C[C@@H]2CC[C@@H]1O [Yohimbine (Hydrochloride)],0.53,1.29,0.93,1.19,0.43,0.59,0.62,0.56,1.59
COc1cc2c(cc1OC)CN(C(=O)[C@@H](NCc1ccncc1)C(C)(C)C)CC2,-0.48,-0.48,0.4,0.07,0.78,0.01,0.85,0.87,-0.05
CC(C)(C)C(=O)C(=Nc1ccc(Cl)cc1)NNc1ccc(Cl)cc1,0.19,-0.44,-0.43,-0.78,-0.84,-0.07,-3.52,-6.25,-3.76
CCCCCCCCOc1ccccc1C(=O)Nc1ccc(C(=O)OCC[N+](C)(CC)CC)cc1 [Otilonium (bromide)],0,0.04,-0.18,1.3,0.83,-0.39,-1.43,2.8,0.94
CC[C@H](NC(=O)c1c(O)c(-c2ccccc2)nc2ccccc12)c1ccccc1 [Talnetant],-0.35,-1.46,-1.05,-0.25,-0.44,-0.26,0.6,0.47,0.13
CCC(=O)O[C@]1(C(=O)CCl)[C@@H](C)C[C@H]2[C@@H]3CCC4=CC(=O)C=C[C@]4(C)[C@@]3(F)[C@@H](O)C[C@@]21C [Clobetasol propionate],0.05,1.13,1.43,-1.31,1.19,0.63,-0.19,-0.09,0.7
O=C1CCc2ccc(OCCCCN3CCN(c4cccc(Cl)c4Cl)CC3)cc2N1 [Aripiprazole],0.2,1.79,0.78,0.08,0.1,0.63,-3.14,-5.16,-3.2

Compound,phospho-S6 immunofluorescence (z-score) [1],phospho-S6 immunofluorescence (z-score) [2],phospho-S6 immunofluorescence (z-score) [3],phospho-S6 immunofluorescence (z-score) [4],phospho-S6 immunofluorescence (z-score) [5],phospho-S6 immunofluorescence (z-score) [6],phospho-S6 immunofluorescence (z-score) [7],phospho-S6 immunofluorescence (z-score) [8],phospho-S6 immunofluorescence (z-score) [9]
OC[C@H]1O[C@@H](n2cnc3c(NCc4ccc(O)cc4)ncnc32)[C@H](O)[C@@H]1O [N6-(4-Hydroxybenzyl)adenosine],0.33,1.07,0.41,-0.12,1.68,1.96,-0.95,1.31,0.96
CCN(CC)CCNC(=O)c1cc(Cl)c(N)cc1OC [Metoclopramide],0.53,-0.65,0.13,0.15,-0.34,0.08,-0.3,0.63,-0.11
O=c1ccn([C@@H]2O[C@H](COP(=O)(O)OP(=O)(O)OP(=O)(O)OP(=O)(O)OC[C@H]3O[C@@H](n4ccc(=O)[nH]c4=O)[C@H](O)[C@@H]3O)[C@@H](O)[C@H]2O)c(=O)[nH]1 [Diquafosol (tetrasodium)],-1.44,-1.16,-1.05,-0.95,1.38,-1.45,0.01,0.71,-0.38
O=C(CCCN1CC=C(n2c(=O)[nH]c3ccccc32)CC1)c1ccc(F)cc1 [Droperidol],-0.51,1.2,0.83,-0.68,-0.03,0.89,-0.18,0.16,0.18
CC(=O)[C@H]1CC[C@H]2[C@@H]3CC=C4C[C@@H](O)CC[C@]4(C)[C@H]3CC[C@]12C [Pregnenolone],0.85,0.54,1.02,1.23,-0.53,0.66,1.58,1.58,0.85
CCCCC(=O)N(Cc1ccc(-c2ccccc2-c2nnn[nH]2)cc1)[C@H](C(=O)O)C(C)C [Valsartan],0.8,0.9,0.9,0.58,0.18,1.1,0.04,0.5,0.13
Nc1nc(NCCc2ccc(O)cc2)nc2nc(-c3ccco3)nn12,-1.12,0.66,1.88,-0.21,1.98,1.38,-1.88,0.67,1.01
CCCSc1nc(N[C@@H]2C[C@H]2c2ccc(F)c(F)c2)c2nnn([C@@H]3C[C@H](OCCO)[C@@H](O)[C@H]3O)c2n1 [Ticagrelor],1.97,1.13,1.02,0.34,0.77,1.57,-1.29,0.02,1.13
Clc1ccc2c(c1)N=C(N1CCNCC1)c1ccccc1N2 [N-Desmethylclozapine],0.23,-0.53,0.43,1.18,-0.13,-0.15,-0.56,-3.16,-0.88
COc1cc2nc(N3CCN(C(=O)c4ccco4)CC3)nc(N)c2cc1OC [Prazosin (hydrochloride)],0.21,-0.1,-0.57,1.1,-0.37,-0.65,2.1,0.54,0.24
O=C(Nc1ccccc1)C12CC1C(=NO)c1ccccc1O2 (stereo not given),0.2,0.59,0.39,0,-0.05,0.08,-0.19,-0.81,0.75
Cc1sc(C)c(C(=O)NC2(c3ccc(C(=O)O)cc3)CC2)c1Cc1ccc(C(F)(F)F)cc1,-0.88,-0.8,1.08,-1.5,-0.68,-0.21,-1.42,-0.58,0.73
COCCOc1ccc(N2CCN(CCn3ncc4c3nc(N)n3nc(-c5ccco5)nc43)CC2)cc1 [Preladenant],0.7,-0.86,0.36,-0.67,0.18,0.71,-0.66,0.79,0.97
COc1ccc2c(c1OC)C(=O)O[C@@H]2[C@H]1c2c(cc3c(c2OC)OCO3)CCN1C [Noscapine],-0.12,0.69,0.38,0.78,-0.15,0.17,0.49,0.12,0.47
CCN(CCCc1ccccc1)CCCc1ccccc1 [Alverine (citrate)],-0.18,-0.15,-0.55,-0.27,-0.09,-0.62,-0.52,-1.04,0.02
COCCCN1CCC(NC(=O)c2cc(Cl)c(N)c3c2OCC3)CC1 [Prucalopride],-0.03,0.02,0.31,0.22,-0.02,-0.07,0.54,0,0.17
COc1cc(/C=C/C(=O)O)ccc1O [Ferulic acid (sodium)],0.8,0.73,0.22,0.42,0.49,0.82,0.56,0.36,0.33
COc1ccc(NS(=O)(=O)c2sc3ccc(Cl)cc3c2C)cc1N1CCNCC1,1.04,1.36,0.62,1.69,0.14,1.48,0.28,-1,0.35
CCNC(=O)[C@H]1O[C@@H](n2cnc3c(N)nc(NCCc4ccc(CCC(=O)O)cc4)nc32)[C@H](O)[C@@H]1O,0.32,-0.65,-0.21,0.1,-0.2,0.13,0.05,1.28,-0.14
CC1CCN(CC[C@H]2CCCN2S(=O)(=O)c2cccc(O)c2)CC1,0.56,1.21,0.14,0.5,-1.11,-0.69,0.86,0.2,0.48

# One compound at a time, as listed above. Values in the order: phospho-S6 immunofluorescence (z-score) [1] | phospho-S6 immunofluorescence (z-score) [2] | phospho-S6 immunofluorescence (z-score) [3] | phospho-S6 immunofluorescence (z-score) [4] | phospho-S6 immunofluorescence (z-score) [5] | phospho-S6 immunofluorescence (z-score) [6] | phospho-S6 immunofluorescence (z-score) [7] | phospho-S6 immunofluorescence (z-score) [8] | phospho-S6 immunofluorescence (z-score) [9]
# CC1CCN(CC[C@H]2CCCN2S(=O)(=O)c2cccc(O)c2)CC1 reads 0.56 | 1.21 | 0.14 | 0.5 | -1.11 | -0.69 | 0.86 | 0.2 | 0.48
# COc1cc(/C=C/C(=O)O)ccc1O [Ferulic acid (sodium)] reads 0.8 | 0.73 | 0.22 | 0.42 | 0.49 | 0.82 | 0.56 | 0.36 | 0.33
# OC[C@H]1O[C@@H](n2cnc3c(NCc4ccc(O)cc4)ncnc32)[C@H](O)[C@@H]1O [N6-(4-Hydroxybenzyl)adenosine] reads 0.33 | 1.07 | 0.41 | -0.12 | 1.68 | 1.96 | -0.95 | 1.31 | 0.96
